Results taken from patent publication US20230184756A1, “BIOMATERIALS” (INSTITUTO DE MEDICINA MOLECULAR JOÃO LOBO ANTUNES, priority 2020, published 2023).
At least one peptide structure holds a part that was inferred or is arguable (an end, a ring closure or a residue). Peptide text beside a SMILES is read from it.

Key:
[1] = Sample preparation: highest concentration at which the peptide fully dissolves; assay type: physicochemical; conditions: 50 mM Tris-HCl pH 7.5, 5 mM EDTA buffer, room temperature
Experimental: STVIIE, GNNQQNY, QVQIIE and ISFLIF were prepared at the highest final concentration that they were able to be fully dissolved, respectively 1 mg/mL (STVIIE and GNNQQNY), 0.55 mg/mL (QVQIIE) and 0.1 mg/mL (ISFLIF). For all peptide samples the final incubation buffer was 50 mM Tris-HCl pH 7.5, 5 mM EDTA buffer. Briefly, after weighing the peptide, half of the final volume of H2O ultrapure was added. A short vortex of approximately 1500 rpm and 30 seconds and an ultrasound bath of 280 seconds in water/ice were performed two times. The other half of the final volume was then added, containing 100 mM Tris-HCl pH 7.5, 10 mM EDTA buffer was added, with the peptide samples being therefore in the final incubation buffer. Before incubation, two other cycles of vortex and ultrasound bath were performed. The final peptide solution sample was incubated at room temperature.

[2] = Atomic force microscopy of amyloid fibril formation, morphology and dimensions; assay type: physicochemical; conditions: for morphology at end of incubation: 2 weeks incubation at physiologic pH
Source text: According to experimental procedures at the host lab^57-59, the samples were placed in poly-1-lysine slides and dried using a vacuum chamber. When fully dried, the samples were rinsed with ultra-pure water and dried with a gentle N2 air flux. A NanoWizard II atomic force microscope (JPK Instruments, Berlin, Germany), mounted on the top of an Axiovert 200 inverted optical microscope (Zeiss, Jena, Germany), was used for the microscopic experiments. The AFM head is equipped with a 5.85-μm z-range linearized piezoelectric scanner and an infrared laser. For the acquisition of the different AFM images, it was used a ACL-50 tip (Applied NanoStructures, Inc., California, USA) with a spring constant between 20-95 N/m and a frequency between 145-230 kHz. Amyloid fibrils were acquired in intermittent (air) mode with a setpoint of between 0.4-0.5 V, a line rate of 0.7-0.8 Hz, an IGain of 20-50 Hz and a PGain of 0.001-0.004. The images acquired were treated afterwards with the JPKSPM Data Processing (JPK Instruments, Berlin, Germany).
The most promising amyloidogenic peptide is typically selected. For this purpose, atomic force microscopy (AFM) was employed. AFM is a technique that can be very useful in the acquisition of surface images with high resolution and sensibility, being therefore suitable for such studies of amyloid fibrils and employed in this analysis. […] Regarding GNNQQNY (FIG. 2, first row from the top), at the start of incubation there are no visible structures. At the end of the incubation period tested (2 weeks), heterogeneous structures are visible. […] In contrast, QVQIIE, ISFLIF and STVIIE peptides show amyloid morphologies at the end of the incubation period tested (FIG. 2). […] This is consistent with the β-sheet content of QVQIIE and ISFLIF at the end of the incubation period, measured via Fourier transform infrared spectroscopy (FIG. 12) and binding profile to Congo Red (FIG. 13). […] As for STVIIE, it forms clear fibril structures in the conditions tested. It also starts forming them at an earlier time point (about 6 hours) than ISFLIF and is soluble at high concentrations (1 mg/mL), both important properties for detection and signal amplification. STVIIE is thus employed in the nanotechnology applications described here, at physiological pH and temperature. It is used in to develop the signal amplification method, as described ahead.
STVIIE amyloid fibril formation process in physiological conditions of pH and temperature was further characterized (FIG. 3). AFM allows nanoscale analysis of STVIIE amyloid fibrils (FIG. 3a, first five leftmost images), at several incubation times: 0 h, 6 h, 24 h, 72 h and 2 weeks. Throughout incubation there is a visible increase in amyloid-like fibril structures. Amyloid β peptide (involved in Alzheimer's disease), Aβ(1-42), was incubated for two weeks and used as a positive control of fibrillization, while buffer and empty slides were employed as negative controls of AFM experiments (FIG. 3a, three rightmost images).
Regarding STVIIE amyloid fibrils, it is clear that they display repetitive patterns of specific sizes (FIG. 3b-c). We studied those patterns, as they are relevant for understanding amyloidogenesis and using STVIIE-derived amyloids in nanotechnology applications. STVIIE, when incubated in the conditions described, forms amyloid fibrils with a characteristic twist periodicity and well-defined macroscopic structure. Using JPK analysis software (JPK Instruments AG, Berlin, Germany), it is possible to determine the amyloid fibrils width, height and twist periodicity values (FIG. 3d-e). Here ΔX is established as the average distance between helical turns and ΔY as is the average distance between the maximum height and the minimum height of the helical turn. STVIIE amyloid fibrils have a periodic width of 118±16 nm, a ΔX of 170±7 nm, a ΔY of 3.2±0.4 nm and a height of 13.5±0.9 nm, within typical values.

## CC[C@H](C)[C@H](N)C(=O)N[C@@H](CO)C(=O)N[C@@H](Cc1ccccc1)C(=O)N[C@@H](CC(C)C)C(=O)N[C@H](C(=O)N[C@@H](Cc1ccccc1)C(=O)O)[C@@H](C)CC [ISFLIF] (H-ISFLIF-OH; N-terminus and C-terminus assumed)
[1]
  highest final concentration that they were able to be fully dissolved: 0.1 mg/mL
[2]; AFM
  morphology at end of incubation: classical amyloid fibril morphology

## CC[C@H](C)[C@H](NC(=O)[C@@H](NC(=O)[C@@H](NC(=O)[C@@H](N)CO)[C@@H](C)O)C(C)C)C(=O)N[C@H](C(=O)N[C@@H](CCC(=O)O)C(=O)O)[C@@H](C)CC [STVIIE] (H-STVIIE-OH; N-terminus and C-terminus assumed)
[1]
  highest final concentration that they were able to be fully dissolved: 1 mg/mL
[2]; AFM
  amyloid fibril height: 13.5±0.9 nm
  ΔX, average distance between helical turns: 170±7 nm
  ΔY, average distance between maximum and minimum height of the helical turn: 3.2±0.4 nm
  morphology at end of incubation: typical amyloid morphology
[2]; AFM, physiological pH and temperature
  amyloid fibril periodic width: 118±16 nm
[2]; physiological pH and temperature
  time point at which fibrils start forming: about 6 hours
